Where a chain is given by its changes, count along the chain named. These are yes or no findings as the source states them, for the method shown. Some entries that bind do so weakly or less than the wild type. Each block holds one binder with its values, some of them ahead of it.
Columns and labels:
[1] = biological target: T1, T cell receptor alpha/beta on purified primary human T cells (human) (UniProt P01848+P01850); experiment: flow cytometry, purified primary human T cells
[2] = biological target: T1, T cell receptor alpha/beta on purified primary human T cells (human); experiment: flow cytometry on purified primary human T cells, MCF
[3] = biological target: soluble recombinant cynomolgus TCR alpha/beta-zipper protein (cynomolgus/rhesus monkey); experiment: ELISA, 2 µg/ml directly coated soluble recombinant cynomolgus TCR α/β-zipper protein, OD 450 nm
[4] = biological target: soluble recombinant cynomolgus TCR alpha/beta-zipper protein (cynomolgus/rhesus monkey); experiment: BLI (Octet RED384), cynomolgus TCR α/β-zipper on the sensor, Nanobody as analyte
[5] = biological target: soluble recombinant cynomolgus TCR alpha/beta-zipper protein (cynomolgus/rhesus monkey); experiment: ELISA, coated soluble cynomolgus TCR-zipper
[6] = biological target: T1, T cell receptor alpha/beta on purified primary human T cells (human); experiment: flow cytometry on purified primary human T cells, MCF [cont']

Chains of the proteins cited; added tags and fusions are not shown. Lines headed by an entry give the natural chain unless they say otherwise; changes in a name come on top.
UniProt P01848: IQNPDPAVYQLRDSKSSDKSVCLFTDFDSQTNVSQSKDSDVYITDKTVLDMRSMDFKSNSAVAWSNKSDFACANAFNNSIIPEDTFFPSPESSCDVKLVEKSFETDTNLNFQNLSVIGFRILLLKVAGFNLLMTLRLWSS
UniProt P01850: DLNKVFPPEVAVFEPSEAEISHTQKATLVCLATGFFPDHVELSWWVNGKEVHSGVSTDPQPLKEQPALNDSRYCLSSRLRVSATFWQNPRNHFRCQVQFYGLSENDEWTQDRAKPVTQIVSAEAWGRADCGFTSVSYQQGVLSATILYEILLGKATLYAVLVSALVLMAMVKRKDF

binding [1]: binds
binding [2]: binds
binding [3]: binds
binding [4]: binds
binding [5]: binds
B1: T0170055A02 (VHH, not shown: small tags and cut ends)
VHH: EVQLVESGGGLVQPGGSLRLSCAASGDVHKINILGWYRQAPAKEREMVAHITIGDATDYADSAKGRFTISRDEAKNMVYLQMNSLKPEDTAVYFCRAYSRIYPYNYWGQGTLVTVSS

binding [3]: binds
binding [4]: binds
binding [5]: binds
B2: T0170056G05 (VHH, not shown: small tags and cut ends)
VHH: B1 VHH with A23V, I33F, A42G, M47K, T52S, A56Q, A74S, Y98F, N105D

binding [1]: binds
binding [3]: binds
binding [6]: binds
binding [5]: binds
B3: T0170068G05 (VHH, not shown: small tags and cut ends)
VHH: VQLVEESGGGLVQPGGSLRLSCITSGETFKINIWGWYRQAPGKQRELVASLTIGGATNYADSVKGRFTISEDSAKNTVYLQMNSLKPEDTAVYFCNAKSRIYPYDYWGRGTQVTVSS

binding [1]: binds
binding [6]: binds
B4: T0170061G01 (VHH, not shown: small tags and cut ends)
VHH: EVQLVESGGGLVQPGGSLRLSCAASGEIGRINFYRWYRQAPGNQREVVATITIADKTDYADSAKGRFTISRDESRNMVYLQMSSLKPEDTAVYFCHAGSRLYPYDYWGQGTQVTVSS
binding [5]: no binding (tested: >1E7 (M, as printed))

From patent US20190112392A1
